Binding data for 1 molecule are collected here from article PMC5752956.

No constants are given. Whether binding was seen depends on the method and setting. Binding seen in cells or lysates may run through a third protein. A result given as binding can be weak or reduced; the word gives no strength.

In this test the target is EGFP-tagged Merkel cell polyomavirus small tumor antigen (EGFP-ST) (Merkel cell polyomavirus). As to the kind of experiment: co-IP; lysates of HEK-293 cells transfected for 24 h with EGFP-tagged ST constructs incubated with GFP-TRAP agarose beads; pulldowns immunoblotted with PP2A Aβ- and PP4C-specific antibodies (endogenous proteins). In general terms: Immunoblotting shows a protein as a band on a membrane.

B1: catalytic subunit of protein phosphatase 4 (PP4C) (enzyme, UniProt P60510 1-307)
chain: MAEISDLDRQIEQLRRCELIKESEVKALCAKAREILVEESNVQRVDSPVTVCGDIHGQFYDLKELFRVGGDVPETNYLFMGDFVDRGFYSVETFLLLLALKVRYPDRITLIRGNHESRQITQVYGFYDECLRKYGSVTVWRYCTEIFDYLSLSAIIDGKIFCVHGGLSPSIQTLDQIRTIDRKQEVPHDGPMCDLLWSDPEDTTGWGVSPRGAGYLFGSDVVAQFNAANDIDMICRAHQLVMEGYKWHFNETVLTVWSAPNYCYRCGNVAAILELDEHLQKDFIIFEAAPQETRGIPSKKPVADYFL
Regarding B1, the binding result is “binds”.
